From article PMC4895226
No constants are given. Whether binding was seen depends on the method and setting. In cells and extracts the contact can be indirect. Some results given as binding are weak or reduced against the parent protein; the word gives no strength.

Sequences of proteins named here, by UniProt entry; tags and fusion partners are left off. A change or cut given only in a name is not applied to a line headed by its entry. A line that says so, or that is headed by a name, gives the form on record, which may keep a tag or linker. Residues count along the entry.
UniProt Q15691: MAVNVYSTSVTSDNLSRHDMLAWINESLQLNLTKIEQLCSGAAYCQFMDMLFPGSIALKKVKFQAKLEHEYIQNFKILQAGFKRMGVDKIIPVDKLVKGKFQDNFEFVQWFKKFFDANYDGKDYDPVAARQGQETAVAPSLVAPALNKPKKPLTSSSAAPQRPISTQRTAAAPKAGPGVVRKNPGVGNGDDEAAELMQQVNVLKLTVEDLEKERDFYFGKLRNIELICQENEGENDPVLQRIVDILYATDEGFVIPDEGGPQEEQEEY
truncated APC endogenously expressed in the DLD-1 colon cancer cell line (P25054, residues 1-1417): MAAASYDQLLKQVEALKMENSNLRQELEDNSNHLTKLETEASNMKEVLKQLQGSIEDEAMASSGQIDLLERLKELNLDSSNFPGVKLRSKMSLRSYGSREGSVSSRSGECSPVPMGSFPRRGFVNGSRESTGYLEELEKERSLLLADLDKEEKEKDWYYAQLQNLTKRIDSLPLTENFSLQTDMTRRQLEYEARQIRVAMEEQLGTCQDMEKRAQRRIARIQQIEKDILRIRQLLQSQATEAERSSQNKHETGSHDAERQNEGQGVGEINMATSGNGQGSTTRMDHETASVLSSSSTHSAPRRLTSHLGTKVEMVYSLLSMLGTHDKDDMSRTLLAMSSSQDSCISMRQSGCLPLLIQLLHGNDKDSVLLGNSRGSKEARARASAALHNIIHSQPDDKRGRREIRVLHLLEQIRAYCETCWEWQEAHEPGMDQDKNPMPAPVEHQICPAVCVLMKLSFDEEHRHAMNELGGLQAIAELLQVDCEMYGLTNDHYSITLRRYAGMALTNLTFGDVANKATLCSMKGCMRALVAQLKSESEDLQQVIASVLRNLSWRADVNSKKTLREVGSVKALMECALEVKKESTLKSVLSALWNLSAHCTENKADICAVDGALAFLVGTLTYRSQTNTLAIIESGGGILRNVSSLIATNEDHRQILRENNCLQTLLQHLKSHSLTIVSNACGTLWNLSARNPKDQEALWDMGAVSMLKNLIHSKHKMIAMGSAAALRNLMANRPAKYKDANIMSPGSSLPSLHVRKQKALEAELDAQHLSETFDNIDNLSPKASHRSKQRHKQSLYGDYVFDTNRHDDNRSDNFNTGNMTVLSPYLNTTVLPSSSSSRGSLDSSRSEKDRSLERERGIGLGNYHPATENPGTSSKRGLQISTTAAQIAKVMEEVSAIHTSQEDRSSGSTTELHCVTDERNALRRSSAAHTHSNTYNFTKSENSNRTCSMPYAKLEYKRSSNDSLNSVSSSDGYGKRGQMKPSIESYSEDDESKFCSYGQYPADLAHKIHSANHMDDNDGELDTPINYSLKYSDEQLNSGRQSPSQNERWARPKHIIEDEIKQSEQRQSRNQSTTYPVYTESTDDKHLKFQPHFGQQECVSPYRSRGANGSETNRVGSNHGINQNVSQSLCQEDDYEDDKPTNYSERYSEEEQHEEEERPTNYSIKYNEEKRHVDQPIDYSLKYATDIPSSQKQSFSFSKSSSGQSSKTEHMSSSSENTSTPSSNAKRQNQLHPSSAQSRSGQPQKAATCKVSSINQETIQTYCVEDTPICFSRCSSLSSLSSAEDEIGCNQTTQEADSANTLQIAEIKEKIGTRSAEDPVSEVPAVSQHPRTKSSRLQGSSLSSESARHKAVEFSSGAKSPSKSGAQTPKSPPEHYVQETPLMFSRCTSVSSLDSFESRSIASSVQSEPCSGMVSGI
GFP-APC-C (P25054, residues 2185-2843): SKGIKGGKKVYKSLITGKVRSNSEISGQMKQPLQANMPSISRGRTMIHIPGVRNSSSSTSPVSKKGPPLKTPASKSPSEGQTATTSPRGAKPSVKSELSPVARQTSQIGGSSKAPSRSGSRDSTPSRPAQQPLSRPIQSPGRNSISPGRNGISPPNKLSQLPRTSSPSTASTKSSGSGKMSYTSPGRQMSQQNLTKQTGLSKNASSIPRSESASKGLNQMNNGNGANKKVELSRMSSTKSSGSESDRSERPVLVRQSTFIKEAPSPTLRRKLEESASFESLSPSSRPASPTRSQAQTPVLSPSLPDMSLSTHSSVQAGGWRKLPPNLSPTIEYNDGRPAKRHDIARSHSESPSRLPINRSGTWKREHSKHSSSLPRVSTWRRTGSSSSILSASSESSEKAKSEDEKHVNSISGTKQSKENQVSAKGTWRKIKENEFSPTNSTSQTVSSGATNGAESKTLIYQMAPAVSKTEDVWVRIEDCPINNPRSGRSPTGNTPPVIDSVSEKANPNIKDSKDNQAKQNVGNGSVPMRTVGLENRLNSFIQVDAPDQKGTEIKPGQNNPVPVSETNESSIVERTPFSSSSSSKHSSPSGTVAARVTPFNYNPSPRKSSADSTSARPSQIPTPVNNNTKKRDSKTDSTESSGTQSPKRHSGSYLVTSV
GFP-APC-CΔK (P25054, form named): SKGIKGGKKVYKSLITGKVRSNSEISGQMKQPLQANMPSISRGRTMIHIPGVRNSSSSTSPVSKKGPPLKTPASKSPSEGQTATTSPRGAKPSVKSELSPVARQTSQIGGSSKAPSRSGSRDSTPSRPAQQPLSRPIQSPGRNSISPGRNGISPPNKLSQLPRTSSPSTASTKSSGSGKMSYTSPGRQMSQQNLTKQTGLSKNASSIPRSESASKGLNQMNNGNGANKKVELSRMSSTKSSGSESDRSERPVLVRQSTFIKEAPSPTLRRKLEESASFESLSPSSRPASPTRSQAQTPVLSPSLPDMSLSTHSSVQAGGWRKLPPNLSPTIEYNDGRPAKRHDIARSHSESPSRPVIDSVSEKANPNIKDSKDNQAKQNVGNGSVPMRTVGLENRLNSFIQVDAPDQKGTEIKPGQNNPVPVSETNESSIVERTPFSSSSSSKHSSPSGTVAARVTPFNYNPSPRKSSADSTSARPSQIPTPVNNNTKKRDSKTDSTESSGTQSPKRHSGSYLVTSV

What was measured:
[1] = target: GST-EB1 (UniProt Q15691); assay: pull-down; GST-tagged protein expression lysate (E. coli BL21) added to cell lysate (MRC-5, DLD-1 or transfected HeLaM) in 50 mM Tris pH 7.4, 150 mM NaCl, 1% Triton X-100; 4 °C 2 h, then glutathione sepharose 1 h; immunoblot (anti-APC or anti-GFP)
[2] = target: GST-EB1 (UniProt Q15691); assay: pull-down; purified GST-KIF5Bct or GST-EB1 incubated with lysate of HeLaM cells transfected with GFP-APC-C or GFP-APC-CΔK; immunoblot with anti-GFP; only the target purified

binding [1]	binding [2]	Substance
binds	–	GFP-APC-C (from UniProt P25054 2185-2843) (domain or fragment)
–	binds	GFP-APC-CΔK (from UniProt P25054 2185-2843) (domain or fragment)
no binding	–	truncated APC endogenously expressed in the DLD-1 colon cancer cell line (from UniProt P25054 1-1417) (domain or fragment)
